Reference: PubChem BioAssay AID504444 (National Center for Advancing Translational Sciences (NCATS), 2011)
Hit rate of the full screen: of about 360,000 compounds, about 7,500 (2.1%) were called active. This list was built around the results that the source calls inconclusive (neither active nor inactive); the mix of calls is not that of the screen. Calls follow the shape of the dose curve; as a rule, active = well fitted inhibition curve with a large enough effect; inconclusive = small, poorly fitted or top-dose-only effect, or effect the other way; inactive = flat fitted curve, though single readings scatter. Potencies of inconclusive entries are doubtful fits and often do not repeat.

Assay: Nrf2 qHTS screen for inhibitors; also: nearly all actives have a fitted effect of over 60% in size
Conditions: A549 ARE-Fluc reporter, luciferase luminescence, 18-24 h; activity change, negative = inhibition: at 46 µM (top of the series)
In short: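 Reporter: ARE-Fluc in A549. Exposure: 18-24 h, 37 °C, 5% CO2, 5% FBS OPTI-MEM. Readouts: fluorescent cytotoxicity (CellTiter-Fluor), then luminescent Nrf2 signal after BugLite.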
% is scaled to controls: 0 for no effect and ±100 for the full control effect; potency is read from the fitted curve at half-maximal effect.

Row | SMILES | Potency | activity change, negative = inhibition
1 | COC(=O)Cn1c(SCCOc2ccccc2Cl)nc2ccccc21 | active: 23.1 µM | –
2 | COc1ccccc1N1CCN(C(=O)CNC(=O)c2ccc(Cl)cc2Cl)CC1 | inconclusive: 20.6 µM [falling, single point] | –
3 | CCCN(CC)c1ncnc2[nH]ncc12 | inconclusive: 4.11 µM [falling, partial curve, poor fit] | –
4 | CN(C)c1ccc(/C=N/NC(=O)c2ccccc2)cc1 | inconclusive: 29.1 µM [activator, single point] | –
5 | Nc1nc(Nc2cccc(F)c2)nc(NCc2ccco2)c1[N+](=O)[O-] | – | inactive: 9.39%
6 | Cn1c(=O)cc(OCC(=O)N2CCCc3ccccc32)c2ccccc21 | – | inactive: 3.8%
7 | Cc1nn(C2CCS(=O)(=O)C2)c(Cl)c1/C=C/C(=O)OCC(=O)Nc1ccccc1OC(F)F (stereo not drawn) | – | inactive: -17.8%
8 | CC(CCC(=O)O)C1CC[C@H]2C3CCC4CC(=O)CCC4(C)[C@H]3CC(=O)C12C (stereo partly drawn) | inconclusive: 1.3 µM [falling, full curve] | –
9 | c1ccc(N2CC3CCc4ccccc4C3=N2)cc1 (stereo not drawn) | inconclusive: 13 µM [activator, partial curve] | –
10 | CC1(C)Cc2c(C#N)c(N3CCN(C(=O)c4ccco4)CC3)nc(Cc3ccccc3)c2CO1 | inconclusive: 18.4 µM [falling, single point] | –
11 | CCC(=O)Nc1nc2ccc3sc(C)nc3c2s1 | inconclusive: 9.2 µM [activator, partial curve] | –
12 | CC(C)CN(CC(C)C)c1nnc(NC(=O)Nc2cccc(C(F)(F)F)c2)s1 | inconclusive: 29.1 µM [falling, single point] | –
13 | COc1ccc(-c2oc3ncnc(NCCCO)c3c2-c2ccc(OC)cc2)cc1 | inconclusive: 29.1 µM [falling, single point] | –
14 | CCOP(=O)(c1ccccc1)C1(C#N)CCCC1 (stereo not drawn) | inconclusive: 0.366 µM [activator, full curve, poor fit] | –
15 | O=C(c1ccccc1)N1CCC(c2nc3c(nnn3Cc3ccccc3Cl)c(=O)[nH]2)CC1 | – | inactive: -21.1%
16 | C=CCn1ccc2c([N+](=O)[O-])cccc2c1=O | inconclusive: 13 µM [falling, partial curve, poor fit] | –
17 | COc1ccc(OC2C(=O)N(CCc3ccc(OC)c(OC)c3)C2c2ccc3c(c2)OCO3)cc1 (stereo not drawn) | inconclusive: 23.1 µM [falling, single point] | –
18 | CN1CCN(CCCCOc2cccc3ccccc23)CC1 | inconclusive: 29.1 µM [activator, single point] | –
19 | Cc1cccc(Oc2ccc(S(=O)(=O)N3CCCCC3)cc2NC(=O)C2=COCCO2)c1 | inconclusive: 29.1 µM [falling, single point] | –
20 | O=C(Cn1cc(S(=O)(=O)Cc2cccc(F)c2)c2ccccc21)N1CCOCC1 | – | inactive: 6.93%
21 | O=C(O)CN1C(=O)/C(=C\c2cccc(OCc3ccc(Cl)cc3Cl)c2)SC1=S | inconclusive: 25.9 µM [activator, single point] | –
22 | Cc1ccc(-c2noc(CNS(=O)(=O)c3ccccc3)n2)cc1 | – | inactive: 1.62%
23 | O=C(c1ccc(Cl)c(S(=O)(=O)N2CCCC2)c1)N1CCN(c2ccc(F)cc2)CC1 | inconclusive: 25.9 µM [falling, partial curve, poor fit] | –

Row | SMILES | Potency | activity change, negative = inhibition
24 | CCOC(=O)C1=C(O)/C(=C\c2ccc(CNS(=O)(=O)c3ccc(Br)cc3)o2)N=C1C | – | inactive: 10.8%
25 | Cc1c(Cl)cccc1NC(=O)CSc1nncn1-c1cccnc1 | inconclusive: 18.4 µM [falling, partial curve, poor fit] | –
26 | c1ccn(-c2ccc(N3CCOCC3)cc2)c1 | inconclusive: 29.1 µM [activator, single point] | –
27 | CCOC(=O)Cn1c(=O)cc(C)c2c(C)nn(-c3cccc(F)c3)c21 | – | inactive: 23%
28 | CCN1CCN(c2ccc(S(=O)(=O)N3CCCCC3)cc2NC(=O)c2ccc([N+](=O)[O-])o2)CC1 | inconclusive: 32.6 µM [falling, single point] | –
29 | CCC(C)NS(=O)(=O)c1ccc(S(=O)(=O)N(CC(=O)Nc2ccccc2)Cc2ccco2)cc1 (stereo not drawn) | active: 13 µM | –
30 | Cc1ccc2c(c1)-c1onc(C(=O)N(C)c3ccc(F)cc3)c1CO2 | – | inactive: 17.5%
31 | COc1ccc(CCNC(=O)c2ccc(OCc3c(C)noc3C)cc2)cc1OC | inconclusive: 29.1 µM [falling, single point] | –
32 | COc1cc(NC(=O)CN(C)S(=O)(=O)c2ccc3c(c2)CC(C)N3C(C)=O)cc(OC)c1 (stereo not drawn) | inconclusive: 6.51 µM [falling, partial curve, poor fit] | –
33 | COc1ccc(C(=O)c2no[n+]([O-])c2C(=O)c2ccc(OC)cc2)cc1 | inconclusive: 25.9 µM [falling, single point] | –
34 | COC(=O)COc1ccc(-c2nccc(-c3ccc(Br)cc3)n2)cc1 | – | inactive: 3.39%
35 | CCN(CC(=O)NCc1cccs1)C(=O)c1ccc([N+](=O)[O-])o1 | – | inactive: -1.74%
36 | S=C(Nc1ccccc1)Nc1ccccc1-n1cccc1 | inconclusive: 14.6 µM [falling, single point] | –
37 | CCOc1ccccc1NC(=O)C(c1ccccc1)N1CCN(CC(=O)N2CCCC2)CC1 (stereo not drawn) | inconclusive: 0.326 µM [falling, partial curve, poor fit] | –
38 | Cc1ccc(NC(=O)c2ccc(=O)[nH]n2)cc1S(=O)(=O)Nc1ccccc1Cl | – | inactive: -3.8%
39 | Cc1[nH]nc2c1C(c1cccnc1)N(c1ccc(Br)cc1)C2=O (stereo not drawn) | inconclusive: 14.6 µM [falling, partial curve, poor fit] | –
40 | COc1cccc([C@@H]2CC=C(C(=O)O)[C@H](c3ccc(Br)cc3)N2S(=O)(=O)c2ccc(C)cc2)c1 | inconclusive: 20.6 µM [falling, single point] | –
41 | CCN1C(=O)/C(=C2/C=Cc3ccccc3N2C)OC1=S | inconclusive: 8.2 µM [activator, partial curve] | –
42 | CCOC(=O)Nc1c(Cl)[nH]c(=O)n(C)c1=O | – | inactive: -2.84%
43 | CS(=O)(=O)c1ccc2nc(NC(=O)c3ccc(N4C(=O)CCC4=O)cc3)sc2c1 | inconclusive: 0.184 µM [falling, full curve, poor fit] | –
44 | CCN1C(=O)c2ccccc2S(=O)c2ccc(C(=O)N3CCN(c4cccc(Cl)c4)CC3)cc21 (stereo not drawn) | inconclusive: 1.64 µM [falling, full curve, poor fit] | –
45 | COc1c(OC(C)=O)ccc(/C=C/c2ccc3cccc(OCc4ccccc4)c3n2)c1[N+](=O)[O-] | – | inactive: 7.03%
46 | COC(=O)c1cn(NC(=O)c2ccc([N+](=O)[O-])c(C)c2)c(=O)c2ccccc12 | inconclusive: 9.2 µM [falling, partial curve, poor fit] | –

In the list so far, five have an NH in an aromatic ring.
Row | SMILES | Potency | activity change, negative = inhibition
3 | CCCN(CC)c1ncnc2[nH]ncc12 | inconclusive: 4.11 µM [falling, partial curve, poor fit] | –
15 | O=C(c1ccccc1)N1CCC(c2nc3c(nnn3Cc3ccccc3Cl)c(=O)[nH]2)CC1 | – | inactive: -21.1%
38 | Cc1ccc(NC(=O)c2ccc(=O)[nH]n2)cc1S(=O)(=O)Nc1ccccc1Cl | – | inactive: -3.8%
39 | Cc1[nH]nc2c1C(c1cccnc1)N(c1ccc(Br)cc1)C2=O (stereo not drawn) | inconclusive: 14.6 µM [falling, partial curve, poor fit] | –
42 | CCOC(=O)Nc1c(Cl)[nH]c(=O)n(C)c1=O | – | inactive: -2.84%

(cont.)

Row | SMILES | Potency | activity change, negative = inhibition
47 | Cc1cccc(-c2nc3ccccc3c(=O)n2NC(=O)Cc2ccc(Cl)cc2)c1 | inconclusive: 20.6 µM [falling, single point] | –
48 | Oc1ccc(CCNc2ncnc3ccc(Cl)cc23)cc1 | active: 7.31 µM | –
49 | Cc1cc2oc3c(c(=O)c2cc1C)C(c1cccc(Br)c1)N(Cc1ccco1)C3=O (stereo not drawn) | active: 8.2 µM | –
50 | COCCOc1cc(NC(=O)c2sccc2Oc2ccc([N+](=O)[O-])cc2F)c(Cl)cc1Cl | inconclusive: 29.1 µM [falling, single point] | –
51 | CC1=C(C(=O)OCC2CCCO2)C(c2ccc(F)cc2)NC(=O)N1 (stereo not drawn) | inconclusive: 16.4 µM [falling, partial curve, poor fit] | –
52 | COc1ccc(NC(=O)c2ccc(-c3nc(CSc4ccccc4)c(C)o3)cc2)c(OC)c1 | – | inactive: -26.4%
53 | CC(C)(C)c1ccc(OC(=O)Nc2ccc(O)c(C(=O)O)c2)cc1 | inconclusive: 20.6 µM [falling, single point] | –
54 | Cc1cccc(NC(=O)CSc2nc(=O)n(CCCN3CCOCC3)c3c2CCCC3)c1 | inconclusive: 2.06 µM [falling, partial curve, poor fit] | –
55 | COc1ccccc1NC(=O)Cc1nc(CCl)cs1 | inconclusive: 13 µM [falling, partial curve, poor fit] | –
56 | CCOc1ccc2[nH]c(=O)c(CN(Cc3cccs3)Cc3nnnn3C(C)(C)CC)cc2c1 | inconclusive: 29.1 µM [falling, single point] | –
57 | Cc1cc(C(=O)OCC(=O)Nc2ccc(F)c(F)c2)c(C)o1 | inconclusive: 29.1 µM [falling, single point] | –
58 | CCc1ccc(S(=O)(=O)Nc2ccc3oc(C)c(C(=O)OCCOC)c3c2)cc1 | inconclusive: 29.1 µM [falling, single point] | –
59 | c1ccc(CSc2nnc(-c3ccco3)o2)cc1 | inconclusive: 23.1 µM [activator, single point] | –
60 | CCNC(=S)N1CCN(C(c2ccccc2)c2ccccc2)CC1 | active: 25.9 µM | –
61 | COc1cccc(C2c3[nH]c4ccccc4c3CCN2C(=O)c2ccccc2F)c1OC (stereo not drawn) | inconclusive: 29.1 µM [falling, single point] | –
62 | Cc1cccc(NC(=O)c2cc3c(C)nn(-c4ccccc4)c3s2)c1 | inconclusive: 16.4 µM [falling, partial curve, poor fit] | –
63 | CCOc1ccc(OCCC(=O)N(CCC(C)C)c2c(N)n(Cc3ccccc3)c(=O)[nH]c2=O)cc1 | inconclusive: 3.66 µM [falling, full curve, poor fit] | –
64 | CCCN(CCC(=O)Nc1ccccc1F)CC1CC1 | inconclusive: 25.9 µM [activator, single point] | –
65 | COc1ccc(S(=O)(=O)Nc2cccc(C)c2C)c2cccnc12 | – | inactive: -24.5%
66 | O=C(Cc1ccccc1)Nc1nc(-c2ccc(F)c(F)c2)cs1 | – | inactive: -6.05%
67 | O=c1c2ccccc2nc2n1CCO2 | – | inactive: 1.4%
68 | COc1ccc(CNC(=O)C2CCN(S(=O)(=O)Cc3ccccc3)CC2)cc1 | – | inactive: 4.21%
